Laboratory results: PubChem BioAssay AID686938 (Drosophila RNAi Screening Center, 2013)
Test: 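Looking for CRAC channel components and the factors controlling them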 (primary screen). System: Drosophila S2R+ cells. Reagent: long dsRNA against Drosophila genes, about 0.25 µg dsRNA per well, roughly 10,000 cells. Timing: 5 days of knock-down before the calcium assay. Challenge: thapsigargin (SERCA pump blocker) to empty calcium stores; entry signal taken 4 min after adding it. Read-out: 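Per-well fluo-4 fluorescence in two replicates, unnormalised, measured in resting cells and 4 min after store depletion by the SERCA blocker thapsigargin; ratio of the two present in few wells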. Scale: calcium entry signal: higher = stronger calcium signal after store depletion; resting calcium signal: higher = higher resting calcium signal. Units: calcium entry signal in fluorescence units; resting calcium signal in fluorescence units. Rule for the call: 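Hit if the duplicate-averaged plate z-score for entry over resting signal is under −3; wells with weak total dye signal (Fmax z < −2) or more than 5 off-targets removed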. Calls: active = strongly reduced calcium entry; inactive = no strong reduction.
The deposit covers about 23,000 reagents; this is an unselected part of those with a known target gene and a result. In the full data, 75 (0.33%) are marked active. 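Raw plate signals without normalisation; calls rest on plate z-scores that were not deposited; ratio present for only 364 wells.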 A number with no mark means an inactive call. Reagents against one gene are numbered here. Names joined by + are all predicted targets of the reagent. No sequences are given here. The record does not give: the dose of the treatment.

With CysRS-m (Cysteinyl-tRNA synthetase, mitochondrial), what does the deposit list?
calcium entry signal, replicate 1: 3.38e7; calcium entry signal, replicate 2: 3.76e7; resting calcium signal, replicate 1: 1.45e7; resting calcium signal, replicate 2: 1.85e7

For grass (Gram-positive Specific Serine protease), how do the results read?
calcium entry signal, replicate 1: 4.12e7; calcium entry signal, replicate 2: 5.56e7; resting calcium signal, replicate 1: 2.17e7; resting calcium signal, replicate 2: 2.51e7

Which result is listed for ND-B14.7 (NADH dehydrogenase (ubiquinone) B14.7 subunit)?
calcium entry signal, replicate 1: 4.29e7; calcium entry signal, replicate 2: 5.86e7; resting calcium signal, replicate 1: 2.23e7; resting calcium signal, replicate 2: 2.28e7

How did the screen score CG15368 #1?
calcium entry signal, replicate 1: 3.35e7; calcium entry signal, replicate 2: 5.31e7; resting calcium signal, replicate 1: 1.63e7; resting calcium signal, replicate 2: 2.61e7

What is on record for CG15368 #2?
calcium entry signal, replicate 1: 4.93e7; calcium entry signal, replicate 2: 3.13e7; resting calcium signal, replicate 1: 2.52e7; resting calcium signal, replicate 2: 1.44e7

For CG33080 #1, what was measured?
calcium entry signal, replicate 1: 3.44e7; calcium entry signal, replicate 2: 5.43e7; resting calcium signal, replicate 1: 1.71e7; resting calcium signal, replicate 2: 2.33e7

For CG33080 #2, what was measured?
calcium entry signal, replicate 1: 3.38e7; calcium entry signal, replicate 2: 4.42e7; resting calcium signal, replicate 1: 1.61e7; resting calcium signal, replicate 2: 2.04e7

What did the screen give for CG33080 #3?
calcium entry signal, replicate 1: 3.81e7; calcium entry signal, replicate 2: 3.67e7; resting calcium signal, replicate 1: 1.70e7; resting calcium signal, replicate 2: 1.57e7

Which result is listed for CG31036 #1?
calcium entry signal, replicate 1: 3.73e7; calcium entry signal, replicate 2: 5.83e7; resting calcium signal, replicate 1: 1.85e7; resting calcium signal, replicate 2: 2.33e7

With CG31036 #2, how do the results read?
calcium entry signal, replicate 1: 4.11e7; calcium entry signal, replicate 2: 6.36e7; resting calcium signal, replicate 1: 1.99e7; resting calcium signal, replicate 2: 2.66e7

How did the screen score HDAC4 (Histone deacetylase 4)?
calcium entry signal, replicate 1: 4.02e7; calcium entry signal, replicate 2: 4.61e7; resting calcium signal, replicate 1: 1.95e7; resting calcium signal, replicate 2: 2.10e7

Laid out differently: entries from further up
| gene | dsRNA no. | calcium entry signal, replicate 1 | calcium entry signal, replicate 2 | resting calcium signal, replicate 1 | resting calcium signal, replicate 2 |
| --- | --- | --- | --- | --- | --- |
| ND-B14.7 (NADH dehydrogenase (ubiquinone) B14.7 subunit) | 1 | 4.29e7 | 5.86e7 | 2.23e7 | 2.28e7 |
| CG15368 | 1 | 3.35e7 | 5.31e7 | 1.63e7 | 2.61e7 |

Next reagents:
How did the screen score fl(2)d (female lethal d)?
calcium entry signal, replicate 1: 3.18e7; calcium entry signal, replicate 2: 4.75e7; resting calcium signal, replicate 1: 1.73e7; resting calcium signal, replicate 2: 2.07e7

With Alh (Alhambra) #1, what was measured?
calcium entry signal, replicate 1: 3.09e7; calcium entry signal, replicate 2: 4.10e7; resting calcium signal, replicate 1: 1.84e7; resting calcium signal, replicate 2: 2.20e7

For Alh (Alhambra) #2, what was measured?
calcium entry signal, replicate 1: 4.44e7; calcium entry signal, replicate 2: 3.58e7; resting calcium signal, replicate 1: 2.19e7; resting calcium signal, replicate 2: 1.62e7

With Alh (Alhambra) #3, how do the results read?
calcium entry signal, replicate 1: 4.39e7; calcium entry signal, replicate 2: 2.88e7; resting calcium signal, replicate 1: 2.14e7; resting calcium signal, replicate 2: 1.48e7

Which result is listed for Tsen34 + Trl?
calcium entry signal, replicate 1: 4.32e7; calcium entry signal, replicate 2: 6.20e7; resting calcium signal, replicate 1: 2.10e7; resting calcium signal, replicate 2: 2.46e7

With Fas1 (Fasciclin 1), what was measured?
calcium entry signal, replicate 1: 2.51e7; calcium entry signal, replicate 2: 4.64e7; resting calcium signal, replicate 1: 1.23e7; resting calcium signal, replicate 2: 5.86e7

What did the screen give for BckdhA (Branched chain keto acid dehydrogenase E1 subunit alpha)?
calcium entry signal, replicate 1: 3.71e7; calcium entry signal, replicate 2: 3.68e7; resting calcium signal, replicate 1: 1.80e7; resting calcium signal, replicate 2: 1.92e7

What is on record for CG30026?
calcium entry signal, replicate 1: 3.49e7; calcium entry signal, replicate 2: 3.98e7; resting calcium signal, replicate 1: 2.79e7; resting calcium signal, replicate 2: 1.97e7

Which result is listed for CheB38a (Chemosensory protein B 38a)?
calcium entry signal, replicate 1: 4.81e7; calcium entry signal, replicate 2: 4.72e7; resting calcium signal, replicate 1: 2.11e7; resting calcium signal, replicate 2: 2.41e7

How did the screen score CG11626?
calcium entry signal, replicate 1: 3.98e7; calcium entry signal, replicate 2: 4.69e7; resting calcium signal, replicate 1: 4.99e7; resting calcium signal, replicate 2: 2.06e7
